{"source": "paper PMC12670160", "about": "“A drug-repurposing screen of FDA- and EMA-approved drugs identifies two NF-κB inhibitors active against eumycetoma” (Journal of Antimicrobial Chemotherapy, 2025)", "note": "Structures can show the parent of a compound that is named as a salt. In all, about 5,300 compounds went through this assay and about 130 (2.5%) showed an effect of 50% or more. This is one part of the list. Peptide text beside a SMILES is read from it.", "data": [{"tested_on": "M. mycetomatis strain mm55", "details": "primary screen, metabolic activity vs growth control; 96 h, 2 µM; inhibitor", "units": {"% viability": "%"}, "values": [{"smiles": "O=C(NC[C@H](O)CN1CCc2ccccc2C1)c1cc(NC2COC2)ncn1", "note": "[ONC0001019, epz015666]", "% viability": 70.16}, {"smiles": "COc1cc2ncnc(Sc3nnc(C)s3)c2cc1OC", "note": "[ONC0005168, sklb1002]", "% viability": 66.94}, {"smiles": "COC(=O)CN1CN(c2ccccc2)C2(CCN(Cc3ccc4ccccc4c3)CC2)C1=O", "note": "[ONC0001693, nnc630532]", "% viability": 73.91}, {"smiles": "CC[N+](C)(C)c1cccc(O)c1", "note": "[ONC0005337, edrophonium chloride]", "% viability": 81.25}, {"smiles": "CC[C@H](C)C1NC(=O)[C@H](Cc2ccc(O)cc2)NC(=O)[C@@H](N)CSSC[C@@H](C(=O)N2CCC[C@H]2C(=O)N[C@@H](CC(C)C)C(=O)NCC(N)=O)NC(=O)[C@H](CC(N)=O)NC(=O)[C@H](CCC(N)=O)NC1=O", "note": "(stereo partly drawn) [ONC0002223, oxytocin acetate]", "% viability": 111}, {"smiles": "CC(C)CC1NC(=O)C(C(C)C)NC(=O)C2CCCN2C(=O)C(CC(=O)O)NC(=O)C(Cc2c[nH]c3ccccc23)NC1=O", "note": "(stereo not drawn) [ONC0004583, bq123] (cyclo(DPVLW); configuration not given here)", "% viability": 106.9}, {"smiles": "C[C@@H]1Cc2c([nH]c3ccccc23)[C@@H](c2c(F)cc(/C=C/C(=O)O)cc2F)N1CC(C)(C)F", "note": "[ONC0001011, azd9496]", "% viability": 65.13}, {"smiles": "CC(=O)Nc1cccc(-n2c(=O)n(C3CC3)c(=O)c3c(Nc4ccc(I)cc4F)n(C)c(=O)c(C)c32)c1", "note": "[ONC0002244, trametinib]", "% viability": 96.55}, {"smiles": "C[C@@H](NCCCc1cccc(C(F)(F)F)c1)c1cccc2ccccc12", "note": "[ONC0004729, amg073 hcl cinacalcet hydrochloride]", "% viability": 102.1}, {"smiles": "CC(=O)[C@@]1(O)CC[C@H]2[C@@H]3C=C(Cl)C4=CC(=O)[C@@H]5C[C@@H]5[C@]4(C)[C@H]3CC[C@@]21C", "note": "[ONC0002332, cyproterone]", "% viability": 91.86}, {"smiles": "COc1cccc(CN2C[Si](C)(C)O[Si](C)(C)C2)c1", "note": "[ONC0005443, compound58112]", "% viability": 71}, {"smiles": "O=C[C@H](O)[C@@H](O)[C@H](O)[C@H](O)CO", "note": "[ONC0004668, dextrose dglucose]", "% viability": 120.7}, {"smiles": "OC(Cn1cncn1)(Cn1cncn1)c1ccc(F)cc1F", "note": "[ONC0005572, fluconazole]", "% viability": 73.77}, {"smiles": "CCCCN(CC)c1c([N+](=O)[O-])cc(C(F)(F)F)cc1[N+](=O)[O-]", "note": "[ONC0005308, benfluralin]", "% viability": 131}, {"smiles": "CCOC(=O)Nc1ccc2c(c1)N(C(=O)CCN(CC)CC)c1ccccc1S2", "note": "[ONC0003266, ethacizin]", "% viability": 75.23}]}]}
